The values below come from article PMC8101328.

Assay [1] deals with T1, T25-EpsD(25-674) (pKT25-epsD two-hybrid fusion) (Vibrio cholerae (N16961)) (UniProt P45779).
T1 sequence: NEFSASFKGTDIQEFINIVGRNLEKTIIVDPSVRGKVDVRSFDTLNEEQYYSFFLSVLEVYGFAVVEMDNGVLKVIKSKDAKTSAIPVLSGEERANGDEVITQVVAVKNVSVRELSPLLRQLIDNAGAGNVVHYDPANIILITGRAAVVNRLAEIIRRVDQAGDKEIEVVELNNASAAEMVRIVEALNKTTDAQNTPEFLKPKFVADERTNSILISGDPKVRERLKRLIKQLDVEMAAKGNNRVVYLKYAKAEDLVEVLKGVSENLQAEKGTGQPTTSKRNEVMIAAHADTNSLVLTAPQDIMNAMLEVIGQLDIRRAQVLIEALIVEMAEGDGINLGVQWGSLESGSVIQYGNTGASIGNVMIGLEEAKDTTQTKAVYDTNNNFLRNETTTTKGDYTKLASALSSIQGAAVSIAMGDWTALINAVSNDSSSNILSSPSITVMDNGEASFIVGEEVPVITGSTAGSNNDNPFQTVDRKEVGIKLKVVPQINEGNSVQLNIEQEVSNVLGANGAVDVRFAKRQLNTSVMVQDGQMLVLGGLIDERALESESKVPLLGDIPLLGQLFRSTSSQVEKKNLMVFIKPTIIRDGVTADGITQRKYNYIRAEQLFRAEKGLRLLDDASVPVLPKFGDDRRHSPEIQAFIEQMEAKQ
Kind of assay: two-hybrid.

In assay [2] the target is His6-tagged gp20 (tail fiber protein of phage VP2) (Vibrio cholerae phage VP2). Kind of assay: pull-down; both purified.

These are yes or no findings as the source states them, for the method shown. Binding calls can cover weak binding; strength is not graded here. Sequences can lack the tags named with a protein.

With “T18-gp20 (pUT18C-gp20 two-hybrid fusion) (Vibrio cholerae phage VP2)”, in assay [1], the binding result is “binds”.

B1: GST-tagged EpsD (340-675 aa) (domain or fragment, UniProt P45779 340-674)
chain: RRAQVLIEALIVEMAEGDGINLGVQWGSLESGSVIQYGNTGASIGNVMIGLEEAKDTTQTKAVYDTNNNFLRNETTTTKGDYTKLASALSSIQGAAVSIAMGDWTALINAVSNDSSSNILSSPSITVMDNGEASFIVGEEVPVITGSTAGSNNDNPFQTVDRKEVGIKLKVVPQINEGNSVQLNIEQEVSNVLGANGAVDVRFAKRQLNTSVMVQDGQMLVLGGLIDERALESESKVPLLGDIPLLGQLFRSTSSQVEKKNLMVFIKPTIIRDGVTADGITQRKYNYIRAEQLFRAEKGLRLLDDASVPVLPKFGDDRRHSPEIQAFIEQMEAKQ
For the molecule B1, the binding result in assay [2] is recorded as “binds”.
